For 27 compounds, survivor count and T/C results are on record in PubChem BioAssay AID248 (DTP/NCI, 2004).

This test concerns L1210 leukemia ip in BDF1 mice, survival T/C. In words: NCI In Vivo Anticancer Drug Screen. Data for tumor model L1210 Leukemia (intraperitoneal) in B6D2F1 (BDF1) mice. As to conditions: T/C endpoint: mean survival time, higher T/C = longer survival.
Where [1] appears, read: dose: 400.0 mg/kg/injection, schedule: Q01DX009 (ip), vehicle: saline with Tween-80.
The mark [2] stands for this setting: dose: 200.0 mg/kg/injection, schedule: Q04DX002 (ip), vehicle: saline with Tween-80.
The mark [3] stands for this setting: dose: 400.0 mg/kg/injection, schedule: Q04DX002 (ip), vehicle: saline with Tween-80.
[4] abbreviates: dose: 400.0 mg/kg/injection, schedule: Q01DX009 (ip), vehicle: saline.
The mark [5] stands for this setting: dose: 200.0 mg/kg/injection, schedule: Q01DX009 (ip), vehicle: Klucel (hydroxypropylcellulose) (HPC).
Where [6] appears, read: dose: 400.0 mg/kg/injection, schedule: Q04DX003 (ip), vehicle: Klucel (hydroxypropylcellulose) (HPC).

The list shows only some results of the screen, not a fair sample: it gathers tests that were run many times, whatever their T/C, doses with no T/C, and many T/C values between a quarter and a half above the control. Other doses and runs of a compound stand elsewhere. T/C: endpoint of the treated group in % of that of the vehicle group. Some doses have a count of surviving animals in place of a T/C: the source holds a T/C of zero for them, seemingly a mark for toxic or unscored doses. Some doses without a T/C left all or most animals alive at the check, yet need not have been tolerated: survival well below the control is almost never listed, so the zero probably covers shortened survival too. Survivors were counted at the toxicity check, usually on the fifth day, unless a day is given; later deaths do not show. Schedules are NCI's codes, taken here to give the interval after Q, in days (D) or hours (H), and the number of doses after X. Some schedules carry Z or #; the key to these is not given. Some entries hold several experiments; the results are listed from low to high. Where survival is the endpoint, the PubChem record calls one and a half times the control and up active, and a quarter to a half above the control has no call in these data; cut-offs in other NCI protocols can differ.

Take `NC(N)=N/N=C\c1ccc(C2CCNCC2)cc1`: the survivor count reads like this: (dose: 15.0 mg/kg/injection, schedule: Q01DX Z (oral), vehicle: methylcellulose (MC)) 3 of 6; (dose: 30.0 mg/kg/injection, schedule: Q01DX Z (oral), vehicle: methylcellulose (MC)) 5 of 6; (dose: 60.0 mg/kg/injection, schedule: Q01DX Z (ip), vehicle: methylcellulose (MC)) 2 of 6; (dose: 60.0 mg/kg/injection, schedule: Q01DX Z (oral), vehicle: methylcellulose (MC)) 3 of 6; (dose: 120.0 mg/kg/injection, schedule: Q01DX Z (ip), vehicle: methylcellulose (MC)) 0 of 6; (dose: 120.0 mg/kg/injection, schedule: Q01DX Z (oral), vehicle: methylcellulose (MC)) 1 of 6 and 3 of 6.

Turning to `O=C1C=Cc2ccc(O)cc2C1=O`, the survivor count by setting is: (dose: 10.0 mg/kg/injection, schedule: Q01DX Z (ip), vehicle: saline) 2 of 6; (dose: 15.0 mg/kg/injection, schedule: Q01DX Z (ip), vehicle: saline) 0 of 6; (dose: 20.0 mg/kg/injection, schedule: Q01DX001 (ip), vehicle: acetone) 2 of 6; (dose: 22.0 mg/kg/injection, schedule: Q01DX Z (ip), vehicle: saline) 0 of 6; (dose: 40.0 mg/kg/injection, schedule: Q01DX001 (ip), vehicle: acetone) 0 of 6; (dose: 75.0 mg/kg/injection, schedule: Q01DX001 (ip), vehicle: acetone) 0 of 6. Further, the survivor count is 0 of 6 (dose: 150.0 mg/kg/injection, schedule: Q01DX001 (ip), vehicle: acetone) and 0 of 6 (dose: 300.0 mg/kg/injection, schedule: Q01DX001 (ip), vehicle: acetone).

Consider `CCOc1ccc(OC/C=C(\C)CCC=C(C)C)cc1`, for which the survivor count under setting [1] is given as 3 of 3.

As to `C=C[CH2][Sn]([CH2]C=C)([c]1ccccc1)[c]1ccccc1`, the survivor count was 0 of 3 (dose: 100.0 mg/kg/injection, schedule: Q04DX002 (ip), vehicle: saline with Tween-80); 0 of 3 under setting [2]; 0 of 3 under setting [3].

For `C[P+]1(c2ccccc2)CCC(N)=C(C#N)C1` (stereo unspecified), the survivor count runs as follows: under setting [2], 0 of 3; under setting [3], 0 of 3.

With `CCc1c(N)nc(N)nc1Nc1ccc(Cl)c(Cl)c1`, the survivor count (dose: 200.0 mg/kg/injection, schedule: Q01DX Z (ip), vehicle: methylcellulose (MC)) is 6 of 6.

Regarding `NCC(=O)OC(c1ccccc1)(c1ccccc1)c1ccccc1`, under “dose: 400.0 mg/kg/injection, schedule: Q01DX009 (ip), vehicle: Klucel (hydroxypropylcellulose) (HPC)”, the survivor count is recorded as 2 of 6.

With `O=C(O)c1cocc1C(=O)O`, the survivor count (dose: 400.0 mg/kg/injection, schedule: Q04DX002 (ip), vehicle: Klucel (hydroxypropylcellulose) (HPC)) is given as 1 of 3.

Regarding `Cc1nn(-c2ccccc2)c(N)c1C#N`, the survivor count under setting [4] is on record as 3 of 6.

On to `CC(CN(C)C)C(O)(c1ccccc1)c1ccccc1` (stereo unspecified), for which the survivor count (dose: 400.0 mg/kg/injection, schedule: Q01DX001 (ip), vehicle: saline) was 1 of 4.

Turning to `O=C1OC(=O)C2C3C=CC(C4C=CC43)C12` (stereo unspecified), the survivor count under setting [4] is on record as 2 of 6 and the survivor count under setting [3] is 1 of 3.

As for `c1ccc([Si]2(c3ccccc3)[Si](c3ccccc3)(c3ccccc3)[Si](c3ccccc3)(c3ccccc3)[Si](c3ccccc3)(c3ccccc3)[Si](c3ccccc3)(c3ccccc3)[Si]2(c2ccccc2)c2ccccc2)cc1`, the survivor count (dose: 25.6 mg/kg/injection, schedule: Q04DX002 (ip), vehicle: saline with Tween-80) is recorded as 3 of 3 and the survivor count (dose: 64.0 mg/kg/injection, schedule: Q04DX002 (ip), vehicle: saline with Tween-80) is 3 of 3.

Regarding `NC(CC(=O)O)c1nn[nH]n1` (stereo unspecified), the survivor count under setting [1] is 6 of 6.

As to `c1ccc(CNCc2cccnc2)cc1`, the survivor count (dose: 300.0 mg/kg/injection, schedule: Q01DX009 (ip), vehicle: other) is on record as 0 of 6.

Turning to `CP(c1ccccc1)c1ccccc1`, the survivor count runs as follows: under setting [5], 6 of 6; under setting [6], 1 of 6.

With `CNC(=O)Oc1cccc(NC(=O)C=C(C)C)c1`, the survivor count under setting [1] is recorded as 6 of 6.

Take `CSc1ccc(OC(=O)Nc2cccc(F)c2)cc1`: the T/C under setting [6] is 134 % of control.

For `O=[N+]([O-])c1cc(C(F)(F)F)cc([N+](=O)[O-])c1Cl`, where the note is “dose: 6.25 mg/kg/injection, schedule: Q01DX001 (ip), vehicle: Klucel (hydroxypropylcellulose) (HPC)”, the T/C is 125 % of control. Also, the survivor count is given as 0 of 3 (dose: 100.0 mg/kg/injection, schedule: Q01DX001 (ip), vehicle: Klucel (hydroxypropylcellulose) (HPC)); 1 of 3 (dose: 200.0 mg/kg/injection, schedule: Q01DX001 (ip), vehicle: Klucel (hydroxypropylcellulose) (HPC)); 0 of 3 (dose: 400.0 mg/kg/injection, schedule: Q01DX001 (ip), vehicle: Klucel (hydroxypropylcellulose) (HPC)).

`O=C(c1ccc([N+](=O)[O-])cc1)C(Br)C(Br)c1ccnc2ccccc12` (stereo unspecified): the survivor count by setting is: (dose: 100.0 mg/kg/injection, schedule: Q04DX003 (ip), vehicle: saline with Tween-80) 6 of 6; (dose: 200.0 mg/kg/injection, schedule: Q04DX003 (ip), vehicle: saline with Tween-80) 6 of 6; (dose: 400.0 mg/kg/injection, schedule: Q04DX003 (ip), vehicle: saline with Tween-80) 6 of 6.

As to `CC/C(=C\c1ccc2ccccc2c1)[N+](=O)[O-]`, the survivor count (dose: 300.0 mg/kg/injection, schedule: Q01DX001 (ip), vehicle: saline) is reported as 3 of 6.

For the compound `CCOc1ccc2nc(Cl)sc2c1`, the survivor count runs as follows: under setting [5], 0 of 6; (dose: 300.0 mg/kg/injection, schedule: Q04DX003 (ip), vehicle: Klucel (hydroxypropylcellulose) (HPC)) 0 of 6.

Turning to `COc1cc2c(ccc3c4cc(OC)c(OC)cc4c[n+](C)c23)cc1O`, the T/C runs as follows: (dose: 40.0 mg/kg/injection, schedule: Q01DX009 (ip), vehicle: saline) 137 % of control; (dose: 40.0 mg/kg/injection, schedule: Q04DX003 (ip), vehicle: saline) 143 % of control; (dose: 80.0 mg/kg/injection, schedule: Q04DX003 (ip), vehicle: saline) 145 % of control; (dose: 100.0 mg/kg/injection, schedule: Q04DX003 (ip), vehicle: Klucel (hydroxypropylcellulose) (HPC)) 134 % of control; (dose: 160.0 mg/kg/injection, schedule: Q01DX009 (ip), vehicle: saline) 145 % of control; (dose: 160.0 mg/kg/injection, schedule: Q04DX003 (ip), vehicle: saline) 136 % of control. Moreover, the T/C reads like this: (dose: 200.0 mg/kg/injection, schedule: Q04DX003 (ip), vehicle: Klucel (hydroxypropylcellulose) (HPC)) 125 and 132 % of control; (dose: 320.0 mg/kg/injection, schedule: Q04DX003 (ip), vehicle: saline) 137 % of control; under setting [6], 132 % of control.

Turning to `CNC(=O)c1cc(NC(=O)Nc2ccc(C3=NCCN3)cc2)cc(NC(=O)Nc2ccc(C3=NCCN3)cc2)c1`, the T/C (dose: 30.0 mg/kg/injection, schedule: Q01DX Z (ip), vehicle: saline) is 144 % of control.

Take `O/N=C\c1cc[n+](CC[n+]2ccc(/C=N/O)cc2)cc1`: the survivor count was 0 of 3 (dose: 200.0 mg/kg/injection, schedule: Q04DX002 (ip), vehicle: other) and 1 of 3 (dose: 400.0 mg/kg/injection, schedule: Q04DX002 (ip), vehicle: other).

Consider `O=C1N(CCO)CNC1(c1ccccc1)c1ccccc1`, for which the survivor count (dose: 400.0 mg/kg/injection, schedule: Q01DX001 (ip), vehicle: saline with Tween-80) was 3 of 6.

On to `CC(=O)O[C@H]1[C@H]2O[C@]23[C@@H]2CC[C@]4(O)C[C@@H](O)CC[C@]4(C)[C@H]2CC[C@]3(C)[C@H]1c1ccc(=O)oc1`, for which the survivor count (dose: 400.0 mg/kg/injection, schedule: Q01DX001 (ip), vehicle: other) is 3 of 6.

Turning to `Nc1cnccc1N1CCN(c2ccc(Cl)c(Cl)c2)CC1`, the survivor count was 6 of 6 (dose: 200.0 mg/kg/injection, schedule: Q01DX009 (ip), vehicle: gum acacia) and 0 of 6 (dose: 400.0 mg/kg/injection, schedule: Q01DX009 (ip), vehicle: gum acacia).
